These are yes or no findings as the source states them, for the method shown. In cells and extracts the contact can be indirect. Here binding means that the protein was enriched with, or labelled near, the bait; the list need not be complete. For part of these data: No binding means not detected with the bait. For part of these data: Tags and fused reporters may be left off the sequences shown.
Columns and labels:
Flag-HA-Rpp25 [1] = biological target: T1, Flag-HA-Rpp25 (UniProt Q91WE3); test: affinity purification with mass spectrometry; tandem purification (anti-Flag M2 gel, Flag peptide elution, then anti-HA magnetic beads, HA peptide elution) of Flag-HA-Rpp25 from E14 mESC lysate; lysis in 300 mM KCl, 0.1% IGEPAL, washes at 300 and 150 mM KCl; against mock control
T1 sequence: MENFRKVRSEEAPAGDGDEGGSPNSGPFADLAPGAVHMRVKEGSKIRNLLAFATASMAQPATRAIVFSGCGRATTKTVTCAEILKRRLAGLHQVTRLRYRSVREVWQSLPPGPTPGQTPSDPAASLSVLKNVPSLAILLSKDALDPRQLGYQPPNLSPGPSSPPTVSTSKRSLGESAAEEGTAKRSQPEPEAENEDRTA

Rpp21-3×Flag = biological target: T2, Rpp21-3×Flag (UniProt Q8R040); test: affinity purification with mass spectrometry; single anti-Flag M2 purification of 3×Flag-tagged Rmp64, Rmp24 or Rpp21 from E14 mESC lysate; lysis in 300 mM KCl, 0.1% IGEPAL, washes at 300 and 150 mM KCl, Flag peptide elution; against mock control
T2 sequence: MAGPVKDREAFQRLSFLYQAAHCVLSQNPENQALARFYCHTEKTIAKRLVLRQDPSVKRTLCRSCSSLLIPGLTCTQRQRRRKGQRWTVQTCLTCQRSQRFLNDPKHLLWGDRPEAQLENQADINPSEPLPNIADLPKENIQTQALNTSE

Rmp64-3×Flag = biological target: T3, Rmp64-3×Flag (UniProt Q8R2U2); test: as above
T3 sequence: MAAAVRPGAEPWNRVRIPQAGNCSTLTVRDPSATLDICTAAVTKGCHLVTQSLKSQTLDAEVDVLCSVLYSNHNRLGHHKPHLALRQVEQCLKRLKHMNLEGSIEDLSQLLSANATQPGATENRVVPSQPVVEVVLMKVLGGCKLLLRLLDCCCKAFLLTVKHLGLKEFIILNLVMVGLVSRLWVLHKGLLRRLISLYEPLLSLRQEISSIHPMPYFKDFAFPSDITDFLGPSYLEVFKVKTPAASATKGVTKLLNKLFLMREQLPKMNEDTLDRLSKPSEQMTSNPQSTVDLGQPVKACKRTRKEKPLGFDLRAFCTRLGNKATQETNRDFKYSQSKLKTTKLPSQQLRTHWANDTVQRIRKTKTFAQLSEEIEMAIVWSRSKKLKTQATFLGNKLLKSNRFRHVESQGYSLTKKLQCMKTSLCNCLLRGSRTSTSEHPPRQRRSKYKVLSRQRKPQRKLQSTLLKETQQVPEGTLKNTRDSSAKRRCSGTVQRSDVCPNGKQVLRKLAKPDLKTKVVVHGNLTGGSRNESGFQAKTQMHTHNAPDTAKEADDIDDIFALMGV

Rmp24-3×Flag = test: as above
Flag-HA-RPP25 [2] = biological target: T4, Flag-HA-RPP25 (UniProt Q9BUL9); test: affinity purification with mass spectrometry; tandem purification (anti-Flag M2 gel, Flag peptide elution, then anti-HA magnetic beads, HA peptide elution) of Flag-HA-RPP25 from HEK293T lysate; lysis in 300 mM KCl, 0.1% IGEPAL, washes at 300 and 150 mM KCl; against mock control
T4 sequence: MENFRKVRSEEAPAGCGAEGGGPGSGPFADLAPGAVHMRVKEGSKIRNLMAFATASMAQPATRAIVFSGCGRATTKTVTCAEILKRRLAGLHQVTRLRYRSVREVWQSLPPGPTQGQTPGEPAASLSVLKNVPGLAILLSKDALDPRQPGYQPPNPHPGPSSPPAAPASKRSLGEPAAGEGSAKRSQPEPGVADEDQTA

B1: Rmp24 (protein, UniProt Q5XFZ0 1-217)
chain: MRQKYYIEAAARGLVGSCPGQARYLLWAYSSTHEDNSTFQETCPHCFQLLVLDNSRVRLKPKAKLTPKIQKLLNREARNDTLSFKEAKLLRKYKDSTSVLLITCRTCNRTVRHHGKSRSFLWALKSNAATAANKASPKTPKRTAPGSANLGQSTNGSKGKSPSLTIRTPTSGQSTPICSSRNGSKRKKHFSQLKALLSQSASDKNPKLDFRHFLSSL
**Q.** For B1, which binding (Flag-HA-Rpp25 [1]) is on record?
**A.** binds

**Q.** What about the binding (Rpp21-3×Flag) of the same binder?
**A.** no binding

**Q.** And the binding (Rmp64-3×Flag)?
**A.** binds

B2: Rmp64 (protein, UniProt Q8R2U2 1-564)
chain: T3 sequence
**Q.** Which results are given for B2?
**A.** binding (Flag-HA-Rpp25 [1]): binds; binding (Rpp21-3×Flag): no binding; binding (Rmp24-3×Flag): binds

B3: RPP21 (protein, UniProt Q9H633 1-154)
chain: MAGPVKDREAFQRLNFLYQAAHCVLAQDPENQALARFYCYTERTIAKRLVLRRDPSVKRTLCRGCSSLLVPGLTCTQRQRRCRGQRWTVQTCLTCQRSQRFLNDPGHLLWGDRPEAQLGSQADSKPLQPLPNTAHSISDRLPEEKMQTQGSSNQ
**Q.** Which binding (Flag-HA-RPP25 [2]) does the source give for B3 here?
**A.** binds

B4: RMP64 (protein, UniProt Q6NW34 1-567)
chain: MMAAVPPGLEPWNRVRIPKAGNRSAVTVQNPGAALDLCIAAVIKECHLVILSLKSQTLDAETDVLCAVLYSNHNRMGRHKPHLALKQVEQCLKRLKNMNLEGSIQDLFELFSSNENQPLTTKVCVVPSQPVVELVLMKVLGACKLLLRLLDCCCKTFLLTVKHLGLQEFIILNLVMVGLVSRLWVLYKGVLKRLILLYEPLFGLLQEVARIQPMPYFKDFTFPSDITEFLGQPYFEAFKKKMPIAFAAKGINKLLNKLFLINEQSPRASEETLLGISKKAKQMKINVQNNVDLGQPVKNKRVFKEESSEFDVRAFCNQLKHKATQETSFDFKCSQSRLKTTKYSSQKVIGTPHAKSFVQRFREAESFTQLSEEIQMAVVWCRSKKLKAQAIFLGNKLLKSNRLKHLEAQGTSLPKKLECIKTSICNHLLRGSGIKTSKHHLRQRRSQNKFLRRQRKPQRKLQSTLLREIQQFSQGTRKSATDTSAKWRLSHCTVHRTDLYPNSKQLLNSGVSMPVIQTKEKMIHENLRGIHENETDSWTVMQINKNSTSGTIKETDDIDDIFALMGV
**Q.** Which binding (Flag-HA-RPP25 [2]) does the source give for B4 here?
**A.** binds

B5: RMP24 (protein, UniProt Q32NC0 1-220)
chain: MRQKHYLEAAARGLHDSCPGQARYLLWAYTSSHDDKSTFEETCPYCFQLLVLDNSRVRLKPKARLTPKIQKLLNREARNYTLSFKEAKMVKKFKDSKSVLLITCKTCNRTVKHHGKSRSFVSTLKSNPATPTSKLSLKTPERRTANPNHDMSGSKGKSPASVFRTPTSGQSVSTCSSKNTSKTKKHFSQLKMLLSQNESQKIPKVDFRNFLSSLKGGLLK
**Q.** How did the binding (Flag-HA-RPP25 [2]) turn out when B5 was run?
**A.** binds

B6: Rpp21 (protein, UniProt Q8R040 1-150)
chain: T2 sequence
**Q.** How did the binding (Flag-HA-Rpp25 [1]) turn out when B6 was run?
**A.** binds

**Q.** What about the binding (Rmp24-3×Flag) of the same binder?
**A.** no binding

**Q.** And the binding (Rmp64-3×Flag)?
**A.** no binding

Reference: publication PMC12390755
